Reference: the supplement of paper PMC11451515

Tests used:
[1] = system: P12-Ichikawa; assay: cell viability relative to DMSO control; higher = less cytotoxic; settings: HPLM + 10% dialyzed FBS, 48 h
Method in brief: (§1)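 Library compounds in DMSO were pin-dosed into 1536-well plates (5 μl) holding NOMO1 or SEM (500 cells/well) or P12-Ichikawa (1000 cells/well) leukemia cells, across an 11-point threefold series of 47 μM to 0.79 nM. Each cell line had been adapted for at least four passages in each medium. CellTiter-Glo One luminescence was read after 48 h at 37°C. Viability is the per-plate percentage relative to DMSO wells, with cell-free wells as background.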

[2] = system: SEM cells; assay: as above; settings: 48 h
Method in brief: as §1

[3] = system: NOMO1; assay: as above; settings: HPLM + 10% dialyzed FBS, 48 h
Method in brief: as §1

[4] = system: NOMO1; assay: AUC of viability dose-response curve (% viability x log10 dose units); higher = less sensitive; settings: 48 h
Method in brief: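 Leukemia cells adapted to each medium were seeded in 1536-well plates (500 or 1000 cells/well). They were dosed with library compounds in DMSO at 11 threefold doses, 47 μM to 0.79 nM, for 48 h at 37°C. CellTiter-Glo One luminescence was normalised per plate to DMSO and cell-free wells. Area under the curve was integrated by trapezoidal rule over log10 doses on a four-parameter log-logistic fit; curves exceeding full viability were scaled and curves failing quality control removed.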

Cc1nc2c(-c3cnc(N)nc3)nc(N3CCOCC3)nc2n1C(C)C
Settings	AUC of viability dose-response curve, [4]	cell viability, [1] [%]	cell viability, [3] [%]
0.000781 µM	–	110	108
0.00234 µM	–	75.5	115
0.00702 µM	–	42.9	81.8
0.0211 µM	–	13.7	39
0.0632 µM	–	13.7	40.7
0.19 µM	–	13	41.2
0.569 µM	–	13.5	34.7
1.71 µM	–	15.7	33.9
5.12 µM	–	19.9	34.9
15.4 µM	–	19.9	33.5
46.1 µM	–	24.3	40.4
HPLM + 10% dialyzed FBS	226	–	–
RPMI 5 mM glucose + 10% FBS	188	–	–
RPMI 5 mM glucose + 10% dialyzed FBS	240	–	–

cell viability [%], [2]
Settings	HPLM + 10% dialyzed FBS	RPMI 5 mM glucose + 10% FBS	RPMI 5 mM glucose + 10% dialyzed FBS
0.000781 µM	88.5	105	111
0.00234 µM	105	42.6	148
0.00702 µM	91.8	27.4	111
0.0211 µM	26.7	30.4	26.3
0.0632 µM	24.8	29.4	27.6
0.19 µM	24	28.3	30
0.569 µM	23.8	25	30.3
1.71 µM	27.2	26.1	31.6
5.12 µM	27.2	20.4	30.7
15.4 µM	29.2	21.7	31.4
46.1 µM	28.9	22.3	33.9
